In PMC11247735:
Results are given in words; binding and its absence hold for the method and conditions named. In cells and extracts the contact can be indirect. Some entries that bind do so weakly or less than the wild type. Where a sequence is shown, tags or fusion partners need not be part of it.

B1: CD20 (Membrane Spanning 4-Domains A1) (protein, UniProt P11836 1-297)
chain: MTTPRNSVNGTFPAEPMKGPIAMQSGPKPLFRRMSSLVGPTQSFFMRESKTLGAVQIMNGLFHIALGGLLMIPAGIYAPICVTVWYPLWGGIMYIISGSLLAATEKNSRKCLVKGKMIMNSLSLFAAISGMILSIMDILNIKISHFLKMESLNFIRAHTPYINIYNCEPANPSEKNSPSTQYCYSIQSLFLGILSVMLIFAFFQELVIAGIVENEWKRTCSRPKSNIVLLSAEEKKEQTIEIKEEVVGLTETSSQPKNEEDIEIIPIQEEEEEETETNFPEPPQDQESSPIENDSSP
B2: Histone deacetylase 8 (enzyme, UniProt Q9BY41 1-377)
chain: MEEPEEPADSGQSLVPVYIYSPEYVSMCDSLAKIPKRASMVHSLIEAYALHKQMRIVKPKVASMEEMATFHTDAYLQHLQKVSQEGDDDHPDSIEYGLGYDCPATEGIFDYAAAIGGATITAAQCLIDGMCKVAINWSGGWHHAKKDEASGFCYLNDAVLGILRLRRKFERILYVDLDLHHGDGVEDAFSFTSKVMTVSLHKFSPGFFPGTGDVSDVGLGKGRYYSVNVPIQDGIQDEKYYQICESVLKEVYQAFNPKAVVLQLGADTIAGDPMCSFNMTPVGIGKCLKYILQWQLATLILGGGGYNLANTARCWTYLTGVILGKTLSSEIPDHEFFTAYGPDYVLEITPSCRPDRNEPHRIQQILNYIKGNLKHVV

What was measured:
[1] = molecular target: T1, Histone deacetylase 8 (human (endogenous in SU-DHL-2/R)) (UniProt Q9BY41); test: co-IP; endogenous proteins in SU-DHL-2/R cells; one partner immunoprecipitated with its antibody, the other detected by western blotting; control immunoprecipitation with IgG
T1 sequence: B2 chain

[2] = molecular target: T2, CD20 (Membrane Spanning 4-Domains A1) (human (endogenous in SU-DHL-2/R)) (UniProt P11836); test: as above
T2 sequence: B1 chain

Binder	binding [1]	binding [2]
B1	binds	–
B2	–	binds
